Test results taken from article doi:10.1101/2020.08.19.257287.
No constants are given. Whether binding was seen depends on the method and setting. Binding seen in cells or lysates may run through a third protein. Some entries that bind do so weakly or less than the wild type. For part of these data: Tags and fused reporters may be left off the sequences shown.

Protein sequences, listed by entry. Tags and fused reporters are not part of them.
UniProt O43399: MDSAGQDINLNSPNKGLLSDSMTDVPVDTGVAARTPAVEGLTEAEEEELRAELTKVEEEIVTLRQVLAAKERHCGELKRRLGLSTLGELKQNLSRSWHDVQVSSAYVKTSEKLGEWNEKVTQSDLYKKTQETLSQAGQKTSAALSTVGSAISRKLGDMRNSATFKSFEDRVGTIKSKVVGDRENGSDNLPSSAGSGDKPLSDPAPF

What was measured:
Test in all cases: co-IP
FLAG-TPD53 (human) = molecular target: T1, FLAG-TPD53 (human) (UniProt Q16890)
T1 sequence: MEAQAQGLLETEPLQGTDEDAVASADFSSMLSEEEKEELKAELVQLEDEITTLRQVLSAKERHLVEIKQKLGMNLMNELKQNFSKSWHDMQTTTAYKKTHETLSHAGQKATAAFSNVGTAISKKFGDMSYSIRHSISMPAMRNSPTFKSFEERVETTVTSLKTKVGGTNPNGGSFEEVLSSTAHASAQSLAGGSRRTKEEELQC

FLAG-TPD52 (human) = molecular target: T2, FLAG-TPD52 (human) (UniProt P55327)
T2 sequence: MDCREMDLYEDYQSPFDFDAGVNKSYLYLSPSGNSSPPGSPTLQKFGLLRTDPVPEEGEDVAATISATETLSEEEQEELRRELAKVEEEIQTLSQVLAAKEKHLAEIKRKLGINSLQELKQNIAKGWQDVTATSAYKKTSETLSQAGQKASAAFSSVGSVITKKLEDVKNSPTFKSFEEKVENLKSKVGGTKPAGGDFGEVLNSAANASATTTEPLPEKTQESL

FLAG-TPD54 (human) = FLAG-TPD54 (human) (UniProt O43399)

Measured: binding

GFP-FKBP-TPD54 (from UniProt O43399 1-206)
binds: FLAG-TPD53 (human) | FLAG-TPD52 (human) | FLAG-TPD54 (human)
